The target in experiment [1] is collagen triple helix repeat containing-1 (CTHRC1) protein (Homo sapiens (Human)) (UniProt Q96CG8). The experiment in a line: indirect ELISA, CTHRC1 coated, antibody at 0, 1 and 5 µg/mL, anti-human kappa light chain-HRP.
Experiment [2] shares this target. The experiment in a line: indirect ELISA.
Experiment [3] addresses CTHRC1-Fc (Homo sapiens (Human)) (UniProt Q96CG8). The experiment in a line: indirect ELISA, CTHRC1-Fc coated, HRP-labeled anti-mouse antibody. For orientation: An ELISA detects its analyte on a solid surface through an enzyme-linked reagent.

Protein sequences, listed by entry. Tags and fused reporters are not part of them. Lines headed by an entry give the natural chain unless they say otherwise; changes in a name come on top.
UniProt Q96CG8: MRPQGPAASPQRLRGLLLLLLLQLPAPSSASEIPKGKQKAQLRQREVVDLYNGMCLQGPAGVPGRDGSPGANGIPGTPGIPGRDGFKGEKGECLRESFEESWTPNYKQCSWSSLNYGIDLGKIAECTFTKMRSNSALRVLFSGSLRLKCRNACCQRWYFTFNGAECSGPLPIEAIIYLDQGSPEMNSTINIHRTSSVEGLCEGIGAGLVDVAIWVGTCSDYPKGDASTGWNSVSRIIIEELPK

Results are given in words; binding and its absence hold for the method and conditions named. Some entries that bind do so weakly or less than the wild type.

B1: cCMAb96 anti-CTHRC1 chimeric antibody (antibody, V domains shown)
VH: QVQLQQPGSELVRPGASVKLSCKASGYTFTSYWMHWVKQRPGQGLEWIGNIYPSSGTTNYDEKFKNKATLTVDTSSTTAYMHLSSLTSEDSAVYYCTTESYWGQGTTLTVSS
VL: DIVMTQSPSSLSASLGDTITITCHASQNINVWLSWYQQKPGNIPKLLIYKASNLHTGVPSRFSGSGSGTGFTLTISSLQPEDIATYYCQQGQSYPLTFGGGTKLEIK
Regarding B1, the binding result in experiment [1] and in experiment [2] was “binds” each time.

B2: 9E6 anti-CTHRC1 mouse monoclonal antibody (antibody, V domains shown)
VH: B1 VH
VL: B1 VL
In the case of B2, the binding entry in experiment [3] and in experiment [2] was “binds” throughout.

B3: 4H5 anti-CTHRC1 mouse monoclonal antibody (antibody, V domains shown)
VH: EVQLQQSGPELVKPGASVKISCKASGYSFTDYIMLWVKQSHGKSLEWIGNINPYYGSTSYNLKFKGKATLTVDKSSSTAYMQLNSLTSEDSAVYYCARSGYGYDESAMDYWGQGTSVTVSS
VL: DVLMTQTPLSLPVNIGDQASISCKSTKSLLNSDGFTYLDWYLQKPGQSPQLLIYLVSNRFSGVPDRFSGSGSGTDFTLKISRVEAEDLGVYYCFQSNYLPLTFGSGTKLEIK
For B3, the binding entry in experiment [3] and in experiment [2] was “binds” in each case.

B4: cCMAb45 anti-CTHRC1 chimeric antibody (antibody, V domains shown)
VH: B3 VH
VL: B3 VL
In the case of B4, the binding result in experiment [1] and in experiment [2] was “binds” each time.

For the origin of these results see US20220204599A1.
